Record: PubChem BioAssay AID1508597 (Cure First, 2020)

Aim: 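Knock-downs altering ovarian cancer cell survival with or without PARP inhibitor rucaparib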 (primary screen)
Cell system: human ovarian carcinoma lines grown from tumours: OCI-P5x (papillary serous) and OCI-C5x (clear cell)
Reagent: siRNA pool against human genes, 1.25 pmol siRNA per well
Duration: 72 h or 96 h, depending on the cell culture
Challenge: rucaparib 20 µM (about IC30) or vehicle, present until read-out
Rucaparib or vehicle: Vehicle
Cell line: OCI-C5x (clear cell)
Detection: 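Luminescent ATP-based viability assay read 72 or 96 h after transfection, depending on culture, given as normalised percent viability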
Scale: viability, normalised: higher = more viable cells remaining
Rule for the call: 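Active when normalised viability falls below 80 percent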
Meaning of the calls: active = viability under 80%; inactive = viability 80% or more
Shown is a random part of the about 2,100 reagents, under one of the conditions tested. 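Calls flag viability under 80% in either arm, not effects specific to rucaparib; the reference for percent is not stated.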 Entries without a mark were called inactive. Not stated in the record: the 100% reference.

For POLR2K, technical replicate 1 the deposit lists viability, normalised (%) = 41.5 (active). POLR2K, technical replicate 2 scored viability, normalised (%) = 43.7 (active). For POLR2K, technical replicate 3 the deposit lists viability, normalised (%) = 49.2 (active). For AEBP2, technical replicate 1, the entry reads viability, normalised (%) = 70.3 (active). For AEBP2, technical replicate 2, the values are viability, normalised (%) = 44.1 (active). With AEBP2, technical replicate 3, the values are viability, normalised (%) = 60.4 (active).

HDGFL3, technical replicate 1 scored viability, normalised (%) = 61.4 (active). HDGFL3, technical replicate 2 showed viability, normalised (%) = 52.6 (active). With HDGFL3, technical replicate 3 the deposit lists viability, normalised (%) = 72.5 (active). CSNK1G2, technical replicate 1 scored viability, normalised (%) = 115. CSNK1G2, technical replicate 2 gave viability, normalised (%) = 61.4 (active). CSNK1G2, technical replicate 3 scored viability, normalised (%) = 73.2 (active).

With SIRT4, technical replicate 1, the values are viability, normalised (%) = 30.6 (active). For SIRT4, technical replicate 2 the deposit lists viability, normalised (%) = 29.5 (active). SIRT4, technical replicate 3 gave viability, normalised (%) = 40.5 (active). For SQLE, technical replicate 1, the values are viability, normalised (%) = 63.6 (active). SQLE, technical replicate 2 showed viability, normalised (%) = 57.5 (active). For SQLE, technical replicate 3 the deposit lists viability, normalised (%) = 42.1 (active).

With SETD7, technical replicate 1 the deposit lists viability, normalised (%) = 59.2 (active). SETD7, technical replicate 2 gave viability, normalised (%) = 42.5 (active). With SETD7, technical replicate 3, the entry reads viability, normalised (%) = 49.9 (active). S100A6, technical replicate 1 scored viability, normalised (%) = 30.2 (active). S100A6, technical replicate 2 scored viability, normalised (%) = 36.4 (active). For S100A6, technical replicate 3, the values are viability, normalised (%) = 30.3 (active).

With WNK2, technical replicate 1, the entry reads viability, normalised (%) = 66.4 (active). With WNK2, technical replicate 2, the values are viability, normalised (%) = 67 (active). WNK2, technical replicate 3 gave viability, normalised (%) = 62.6 (active). With RPIA, technical replicate 1 the deposit lists viability, normalised (%) = 37.6 (active). For RPIA, technical replicate 2, the values are viability, normalised (%) = 38.8 (active). RPIA, technical replicate 3 showed viability, normalised (%) = 34.5 (active).

RPA3, technical replicate 1 showed viability, normalised (%) = 59.7 (active). RPA3, technical replicate 2 scored viability, normalised (%) = 41.6 (active). With RPA3, technical replicate 3, the values are viability, normalised (%) = 40.5 (active).

4 entries from above, set out differently:
gene symbol	technical replicate	viability, normalised (%)
HDGFL3	3	72.5 (active)
CSNK1G2	1	115
CSNK1G2	2	61.4 (active)
CSNK1G2	3	73.2 (active)
